The test deals with T1, C terminally FLAG-tagged mouse CARMA1 (mouse) (UniProt Q8CIS0).
T1 sequence: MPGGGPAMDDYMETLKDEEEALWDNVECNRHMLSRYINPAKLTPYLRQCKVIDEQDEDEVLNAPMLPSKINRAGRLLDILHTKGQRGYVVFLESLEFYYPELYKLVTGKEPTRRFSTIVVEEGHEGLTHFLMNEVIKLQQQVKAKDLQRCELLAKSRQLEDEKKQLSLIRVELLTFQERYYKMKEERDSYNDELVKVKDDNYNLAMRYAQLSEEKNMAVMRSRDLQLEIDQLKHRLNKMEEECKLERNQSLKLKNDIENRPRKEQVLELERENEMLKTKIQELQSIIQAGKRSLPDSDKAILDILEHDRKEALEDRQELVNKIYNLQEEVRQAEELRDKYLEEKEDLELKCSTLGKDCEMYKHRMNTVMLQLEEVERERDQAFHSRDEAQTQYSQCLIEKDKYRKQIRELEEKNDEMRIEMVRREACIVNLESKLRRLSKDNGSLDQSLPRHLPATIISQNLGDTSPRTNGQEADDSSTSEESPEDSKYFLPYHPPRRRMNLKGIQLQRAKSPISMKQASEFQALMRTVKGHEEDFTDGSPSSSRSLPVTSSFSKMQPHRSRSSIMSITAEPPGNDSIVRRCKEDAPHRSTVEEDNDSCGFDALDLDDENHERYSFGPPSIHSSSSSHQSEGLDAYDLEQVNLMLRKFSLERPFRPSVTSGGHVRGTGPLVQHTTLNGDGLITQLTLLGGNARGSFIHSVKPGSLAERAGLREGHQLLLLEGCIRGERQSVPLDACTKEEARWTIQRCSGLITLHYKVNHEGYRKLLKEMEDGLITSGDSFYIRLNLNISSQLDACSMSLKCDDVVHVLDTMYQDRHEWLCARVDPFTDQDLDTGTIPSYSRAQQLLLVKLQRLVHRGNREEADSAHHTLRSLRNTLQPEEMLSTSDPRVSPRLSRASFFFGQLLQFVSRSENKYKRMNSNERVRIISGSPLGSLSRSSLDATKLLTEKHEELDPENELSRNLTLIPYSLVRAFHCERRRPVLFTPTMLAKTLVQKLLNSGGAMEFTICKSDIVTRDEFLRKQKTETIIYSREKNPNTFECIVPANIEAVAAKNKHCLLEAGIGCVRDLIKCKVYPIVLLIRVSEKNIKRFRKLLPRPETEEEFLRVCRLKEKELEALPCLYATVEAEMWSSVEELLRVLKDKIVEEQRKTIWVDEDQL
The test is described as follows: co-IP; HEK293T cells transfected with CARMA1-FLAG and LRRK1-GFP, unstimulated or stimulated with 50 ng/ml PMA and 0.5 uM ionomycin for 0, 2, 5 or 15 min; lysis buffer with 0.2% Nonidet P-40; CARMA1-FLAG precipitated with anti-FLAG (M2) on protein G Dynabeads; blot with anti-GFP.

The chains behind the UniProt entries cited, without tags or fusion partners.
UniProt Q3UHC2: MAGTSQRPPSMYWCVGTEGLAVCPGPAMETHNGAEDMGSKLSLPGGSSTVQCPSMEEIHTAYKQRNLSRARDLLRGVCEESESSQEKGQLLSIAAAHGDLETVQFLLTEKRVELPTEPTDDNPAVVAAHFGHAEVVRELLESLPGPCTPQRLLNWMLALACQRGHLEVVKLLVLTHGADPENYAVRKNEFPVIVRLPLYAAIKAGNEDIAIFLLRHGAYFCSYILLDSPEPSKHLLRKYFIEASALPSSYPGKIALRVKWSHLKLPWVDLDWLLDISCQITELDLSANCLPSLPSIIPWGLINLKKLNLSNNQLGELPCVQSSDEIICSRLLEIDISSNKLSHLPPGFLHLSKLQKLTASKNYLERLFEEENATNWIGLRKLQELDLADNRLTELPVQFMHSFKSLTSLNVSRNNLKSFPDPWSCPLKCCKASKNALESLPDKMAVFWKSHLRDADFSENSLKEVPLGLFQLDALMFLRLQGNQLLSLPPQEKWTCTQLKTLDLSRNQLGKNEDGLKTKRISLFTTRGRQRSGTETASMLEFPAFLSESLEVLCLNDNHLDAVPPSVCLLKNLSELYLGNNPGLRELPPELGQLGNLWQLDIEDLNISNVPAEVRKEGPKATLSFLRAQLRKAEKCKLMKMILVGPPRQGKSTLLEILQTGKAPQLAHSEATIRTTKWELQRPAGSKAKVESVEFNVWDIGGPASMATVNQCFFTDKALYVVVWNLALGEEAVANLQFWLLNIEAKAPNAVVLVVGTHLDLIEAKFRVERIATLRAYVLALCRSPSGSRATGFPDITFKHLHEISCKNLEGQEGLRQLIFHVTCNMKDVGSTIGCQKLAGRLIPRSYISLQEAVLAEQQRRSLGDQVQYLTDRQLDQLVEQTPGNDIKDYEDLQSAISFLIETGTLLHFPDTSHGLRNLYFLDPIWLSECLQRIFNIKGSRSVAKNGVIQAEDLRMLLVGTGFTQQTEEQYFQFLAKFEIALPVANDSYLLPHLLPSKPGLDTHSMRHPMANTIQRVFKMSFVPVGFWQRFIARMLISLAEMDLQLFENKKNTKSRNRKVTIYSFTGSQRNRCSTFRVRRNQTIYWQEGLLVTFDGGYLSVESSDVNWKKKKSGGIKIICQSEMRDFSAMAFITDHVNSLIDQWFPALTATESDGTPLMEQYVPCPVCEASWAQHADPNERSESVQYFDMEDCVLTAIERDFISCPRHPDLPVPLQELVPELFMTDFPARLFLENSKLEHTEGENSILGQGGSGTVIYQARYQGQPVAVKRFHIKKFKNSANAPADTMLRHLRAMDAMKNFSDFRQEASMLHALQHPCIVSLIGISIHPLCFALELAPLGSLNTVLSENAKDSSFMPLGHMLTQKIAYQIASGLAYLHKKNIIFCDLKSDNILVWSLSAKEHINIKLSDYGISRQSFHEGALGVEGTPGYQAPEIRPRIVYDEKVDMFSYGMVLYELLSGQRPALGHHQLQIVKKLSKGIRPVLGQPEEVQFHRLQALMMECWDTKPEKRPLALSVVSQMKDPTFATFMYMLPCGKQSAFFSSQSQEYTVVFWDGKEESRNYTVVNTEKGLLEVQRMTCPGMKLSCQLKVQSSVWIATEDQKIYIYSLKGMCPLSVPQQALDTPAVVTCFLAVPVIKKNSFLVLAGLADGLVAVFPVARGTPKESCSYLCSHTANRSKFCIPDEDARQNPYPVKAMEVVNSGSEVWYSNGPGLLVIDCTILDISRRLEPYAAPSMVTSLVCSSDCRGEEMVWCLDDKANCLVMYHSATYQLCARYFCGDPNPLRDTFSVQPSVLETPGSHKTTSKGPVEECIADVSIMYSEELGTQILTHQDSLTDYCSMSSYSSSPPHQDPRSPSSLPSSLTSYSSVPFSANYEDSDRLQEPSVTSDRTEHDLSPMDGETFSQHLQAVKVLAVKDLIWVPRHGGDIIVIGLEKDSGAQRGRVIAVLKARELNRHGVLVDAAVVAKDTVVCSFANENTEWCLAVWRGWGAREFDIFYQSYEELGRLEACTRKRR

No constants are given. Whether binding was seen depends on the method and setting. In cells and extracts the contact can be indirect. Some binding calls cover weakened binding; strength is not graded here. Tags and fused reporters may be left off the sequences shown.

“GFP-tagged mouse LRRK1 (leucine-rich repeat kinase 1) (from UniProt Q3UHC2 1-2014)”: the binding entry is recorded as “binds”.

The values above are taken from publication PMC4863158.
